No constants are given. Whether binding was seen depends on the method and setting. For some of these results: Binding seen in cells or lysates may run through a third protein. Some binding calls cover weakened binding; strength is not graded here.
What was measured:
Cdh1 (human) = Cdh1 (human) (UniProt Q9UM11); experiment: IP-immunoblot of transfected Parkin domain constructs, mitotic cells (FIG. 10A)
Plk1 (human) = Plk1 (human) (UniProt P53350); experiment: as above
[1] = molecular target: Purified Cdh1 recombinant protein (UniProt Q9UM11); experiment: GST pull-down, GST-Parkin on GSH-Sepharose with purified protein (FIG. 6B)
[2] = molecular target: Purified Cdc20 recombinant protein (UniProt Q12834); experiment: as above

The chains behind the UniProt entries cited, without tags or fusion partners. Where a name states a change or a piece, a line headed by the entry shows the natural chain unless it says otherwise. A line that says so, or that is headed by a name, gives the form on record, which may keep a tag or linker. Residues count along the entry.
UniProt Q9UM11: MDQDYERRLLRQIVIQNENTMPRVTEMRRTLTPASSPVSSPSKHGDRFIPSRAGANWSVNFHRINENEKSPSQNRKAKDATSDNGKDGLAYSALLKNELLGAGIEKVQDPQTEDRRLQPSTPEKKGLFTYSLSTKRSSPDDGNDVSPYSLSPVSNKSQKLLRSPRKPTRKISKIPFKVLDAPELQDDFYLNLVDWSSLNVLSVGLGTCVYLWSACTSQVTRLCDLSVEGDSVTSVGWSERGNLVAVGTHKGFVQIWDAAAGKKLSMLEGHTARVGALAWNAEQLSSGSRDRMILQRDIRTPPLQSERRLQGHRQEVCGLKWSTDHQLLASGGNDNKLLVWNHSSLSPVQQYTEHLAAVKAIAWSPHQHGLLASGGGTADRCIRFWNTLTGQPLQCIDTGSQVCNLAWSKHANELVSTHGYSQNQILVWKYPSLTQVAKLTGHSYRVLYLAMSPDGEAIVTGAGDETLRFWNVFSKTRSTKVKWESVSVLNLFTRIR
Purified Cdh1 recombinant protein (Q9UM11, form named): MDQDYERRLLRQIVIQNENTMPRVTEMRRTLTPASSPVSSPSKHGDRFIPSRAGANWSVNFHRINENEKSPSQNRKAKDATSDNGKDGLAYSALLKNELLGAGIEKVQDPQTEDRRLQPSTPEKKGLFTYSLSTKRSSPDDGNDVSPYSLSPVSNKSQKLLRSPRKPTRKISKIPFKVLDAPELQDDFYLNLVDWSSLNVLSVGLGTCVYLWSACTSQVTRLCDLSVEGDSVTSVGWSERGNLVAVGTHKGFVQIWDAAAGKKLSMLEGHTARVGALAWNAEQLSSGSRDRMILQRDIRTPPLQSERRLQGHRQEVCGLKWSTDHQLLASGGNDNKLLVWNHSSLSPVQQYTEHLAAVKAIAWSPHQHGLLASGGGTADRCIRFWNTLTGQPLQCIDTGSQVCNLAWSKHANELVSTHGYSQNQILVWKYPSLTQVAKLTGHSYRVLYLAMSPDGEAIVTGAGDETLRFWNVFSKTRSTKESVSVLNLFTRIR
UniProt P53350, residues 2-603: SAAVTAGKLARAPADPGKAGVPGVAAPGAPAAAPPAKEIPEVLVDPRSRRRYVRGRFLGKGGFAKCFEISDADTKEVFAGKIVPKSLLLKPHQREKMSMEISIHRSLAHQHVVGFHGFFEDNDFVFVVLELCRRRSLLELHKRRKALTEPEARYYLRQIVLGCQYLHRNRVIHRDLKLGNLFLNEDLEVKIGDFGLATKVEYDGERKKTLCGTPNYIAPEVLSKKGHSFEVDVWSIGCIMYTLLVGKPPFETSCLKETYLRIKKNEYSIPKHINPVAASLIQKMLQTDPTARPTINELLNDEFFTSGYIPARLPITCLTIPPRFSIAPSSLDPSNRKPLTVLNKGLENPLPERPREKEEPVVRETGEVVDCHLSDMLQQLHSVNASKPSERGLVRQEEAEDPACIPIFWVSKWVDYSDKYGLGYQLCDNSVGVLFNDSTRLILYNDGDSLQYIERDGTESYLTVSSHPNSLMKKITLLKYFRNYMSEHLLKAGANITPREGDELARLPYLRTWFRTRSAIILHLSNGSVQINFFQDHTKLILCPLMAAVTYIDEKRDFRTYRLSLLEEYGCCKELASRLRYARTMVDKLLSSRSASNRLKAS
UniProt Q12834: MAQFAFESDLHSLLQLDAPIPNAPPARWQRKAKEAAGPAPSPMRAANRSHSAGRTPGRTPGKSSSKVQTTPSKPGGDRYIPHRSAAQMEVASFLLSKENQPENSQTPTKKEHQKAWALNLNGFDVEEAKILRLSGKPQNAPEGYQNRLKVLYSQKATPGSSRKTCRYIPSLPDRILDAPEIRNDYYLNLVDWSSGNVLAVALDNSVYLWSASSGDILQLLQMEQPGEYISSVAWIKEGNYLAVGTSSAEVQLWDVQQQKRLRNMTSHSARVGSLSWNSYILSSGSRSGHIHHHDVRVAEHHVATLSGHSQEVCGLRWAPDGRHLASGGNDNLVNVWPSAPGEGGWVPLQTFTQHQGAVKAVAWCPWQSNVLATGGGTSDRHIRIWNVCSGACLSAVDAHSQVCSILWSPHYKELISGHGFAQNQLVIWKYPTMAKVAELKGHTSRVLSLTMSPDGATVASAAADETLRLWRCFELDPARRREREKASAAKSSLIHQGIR
UniProt O60260: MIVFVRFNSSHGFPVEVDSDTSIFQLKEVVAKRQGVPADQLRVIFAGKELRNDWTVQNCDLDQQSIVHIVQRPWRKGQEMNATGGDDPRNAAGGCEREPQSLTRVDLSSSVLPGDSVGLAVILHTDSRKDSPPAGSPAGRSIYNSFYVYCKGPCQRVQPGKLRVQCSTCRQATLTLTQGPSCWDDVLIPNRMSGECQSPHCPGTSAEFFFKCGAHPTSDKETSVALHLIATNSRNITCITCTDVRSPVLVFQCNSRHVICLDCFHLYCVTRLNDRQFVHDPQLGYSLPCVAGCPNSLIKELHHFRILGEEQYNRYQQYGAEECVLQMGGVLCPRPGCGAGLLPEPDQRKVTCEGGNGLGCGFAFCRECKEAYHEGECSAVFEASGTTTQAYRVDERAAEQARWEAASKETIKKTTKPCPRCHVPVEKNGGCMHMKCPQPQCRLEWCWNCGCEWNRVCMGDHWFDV

Row | binding (Cdh1 (human)) | binding (Plk1 (human)) | binding [1] | binding [2] | Substance
1 | binds | binds |  |  | Parkin C terminal region containing the IBR-RING2 domain (from UniProt O60260 313-465)
2 | binds | binds |  |  | Parkin C terminal region containing the RING1-IBR domain (from UniProt O60260 238-377)
3 |  |  | binds | binds | GST-Parkin (from UniProt O60260 1-465) (enzyme)
4 | binds |  |  |  | Parkin RING2 domain alone (from UniProt O60260 415-465)

From patent US20180344736A1
